Test results as given in PMC11910503, “Novel metal sites revealed by spectroscopic and structural characterization of the ferric uptake regulator from Acidithiobacillus ferrooxidans”.
Numbering of substitutions follows the chain as printed. No signal at the amounts used counts as a negative. Where a protein sequence is shown, tags need not be part of it. For part of these data: For at least one entry, the source does not settle the construct or the ends of the probe.

Columns and labels:
[1] = target: T1, AfFur H91K (Acidithiobacillus ferrooxidans ATCC 23270) (UniProt B7J425); experiment: EMSA; details: + EDTA (1 mM); 10 mM Tris pH 7.5, 50 mM KCl, 5 mM MgCl2, 0.1 mM MnCl2, 1 mM DTT, 2.5% glycerol, 50 ng/uL poly(dI-dC), 0.05% NP-40; 20 fmol probe, 2.9-3.9 ug protein in 20 uL; recombinant protein; protein details: N-terminal His6 (pLATE51); label: 5' biotin
T1 sequence (looked up, limits assumed): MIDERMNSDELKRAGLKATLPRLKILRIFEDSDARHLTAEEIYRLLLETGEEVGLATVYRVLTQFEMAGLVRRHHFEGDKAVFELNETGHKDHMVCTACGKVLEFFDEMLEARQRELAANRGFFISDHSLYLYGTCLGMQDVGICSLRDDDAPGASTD

[2] = target: T2, AfFur WT (Acidithiobacillus ferrooxidans ATCC 23270) (UniProt B7J425); experiment: EMSA; details: 10 mM Tris pH 7.5, 50 mM KCl, 5 mM MgCl2, 0.1 mM MnCl2, 1 mM DTT, 2.5% glycerol, 50 ng/uL poly(dI-dC), 0.05% NP-40, 20 fmol probe, 2.9-3.9 ug protein in 20 uL, recombinant protein, protein details: N-terminal His6 (pLATE51), label: 5' biotin
T2 sequence (looked up, limits assumed): T1 sequence (looked up, limits assumed) with K91H

Measured: binding result

GGCATCAATAAACGGGAATCATTCTCGTCTACC (double strand) [Bio-MntH-Fur-box]
no binding: [1] | [2]; apo (EDTA + DTT, 95 C) | [2]; holo + EDTA (1 mM)
